According to US20190389957A1 (SINGAPORE HEALTH SERVICES PTE, published 2019):
No constants are given. Whether binding was seen depends on the method and setting. Some results given as binding are weak or reduced against the parent protein; the word gives no strength.

T1: IL-11Rα as used in the Biacore kinetics of Example 14 (UniProt Q14626)
T1 sequence (looked up): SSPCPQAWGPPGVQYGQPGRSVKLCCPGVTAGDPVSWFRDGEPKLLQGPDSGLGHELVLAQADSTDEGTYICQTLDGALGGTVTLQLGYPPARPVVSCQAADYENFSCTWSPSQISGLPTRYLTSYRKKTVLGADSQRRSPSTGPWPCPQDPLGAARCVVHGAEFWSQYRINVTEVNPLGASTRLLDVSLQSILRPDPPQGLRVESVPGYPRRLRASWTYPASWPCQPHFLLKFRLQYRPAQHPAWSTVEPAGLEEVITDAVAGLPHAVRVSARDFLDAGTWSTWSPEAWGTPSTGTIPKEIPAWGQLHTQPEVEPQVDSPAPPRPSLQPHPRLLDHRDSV

B1: Humanised BSO-9A7 variant VH3/VL3 (antibody, V domains shown)
VH: QVQLVQSGAEVKKPGASVKVSCKASGYTFTNYWMHWLRQRPGQGLEWIGNIGPSDSKTHYNQKFKDRATLTVDKSTSTAYMELSSLRSEDTAVYYCARGDYVLFTYWGQGTLVTVSS
VL: DIVLTQSPATLSLSPGERATLSCRASQSISNNLHWYQQKPGQAPRLLIKYASQSISGIPARFSGSGSGTDFTLTISSLEPEDFAVYFCQQSYSWPLTFGQGTKLEIK
notes: Variable domains only
B2: Humanised BSO-9A7 variant VH3/VL2 (antibody, V domains shown)
VH: QVQLVQSGAEVKKPGASVKVSCKASGYTFTNYWMHWLRQRPGQGLEWIGNIGPSDSKTHYNQKFKDRATLTVDKSTSTAYMELSSLRSEDTAVYYCARGDYVLFTYWGQGTLVTVSS
VL: DIVLTQSPATLSLSPGERATLSCRASQSISNNLHWYQQKSGQAPRLLIKYASQSISGIPARFSGSGSGTDFTLTISSLETEDFAVYFCQQSYSWPLTFGQGTKLEIK
notes: T0003 heads the columns 'Heavy chain' and 'Light chain', but the entries are variable domains
B3: Humanised BSO-9A7 variant VH3/VL4 (antibody, V domains shown)
VH: QVQLVQSGAEVKKPGASVKVSCKASGYTFTNYWMHWLRQRPGQGLEWIGNIGPSDSKTHYNQKFKDRATLTVDKSTSTAYMELSSLRSEDTAVYYCARGDYVLFTYWGQGTLVTVSS
VL: DIVLTQSPATLSLSPGERATLSCRASQSISNNLHWYQQKPGQAPRLLIKYASQSISGIPARFSGSGSGTDFTLTISSLEPEDFAVYYCQQSYSWPLTFGQGTKLEIK
notes: Variable domains only
B4: Humanised BSO-9A7 variant VH4/VL2 (antibody, V domains shown)
VH: QVQLVQSGAEVKKPGASVKVSCKASGYTFTNYWMHWLRQRPGQGLEWIGNIGPSDSKTHYNQKFKDRVTMTVDKSTSTAYMELSSLRSEDTAVYYCARGDYVLFTYWGQGTLVTVSS
VL: DIVLTQSPATLSLSPGERATLSCRASQSISNNLHWYQQKSGQAPRLLIKYASQSISGIPARFSGSGSGTDFTLTISSLETEDFAVYFCQQSYSWPLTFGQGTKLEIK
notes: Variable domains only
B5: Humanised BSO-9A7 variant VH4/VL3 (antibody, V domains shown)
VH: QVQLVQSGAEVKKPGASVKVSCKASGYTFTNYWMHWLRQRPGQGLEWIGNIGPSDSKTHYNQKFKDRVTMTVDKSTSTAYMELSSLRSEDTAVYYCARGDYVLFTYWGQGTLVTVSS
VL: DIVLTQSPATLSLSPGERATLSCRASQSISNNLHWYQQKPGQAPRLLIKYASQSISGIPARFSGSGSGTDFTLTISSLEPEDFAVYFCQQSYSWPLTFGQGTKLEIK
notes: Variable domains only
B6: Humanised BSO-9A7 variant VH4/VL4 (antibody, V domains shown)
VH: QVQLVQSGAEVKKPGASVKVSCKASGYTFTNYWMHWLRQRPGQGLEWIGNIGPSDSKTHYNQKFKDRVTMTVDKSTSTAYMELSSLRSEDTAVYYCARGDYVLFTYWGQGTLVTVSS
VL: DIVLTQSPATLSLSPGERATLSCRASQSISNNLHWYQQKPGQAPRLLIKYASQSISGIPARFSGSGSGTDFTLTISSLEPEDFAVYYCQQSYSWPLTFGQGTKLEIK
notes: Variable domains only; also called printed once as VH4/VH4

These binders were tested against T1, IL-11Rα as used in the Biacore kinetics of Example 14 (assay: SPR (Biacore T200), multi-cycle kinetics).
B1 was tested, and the binding was “binds”. B2 was tested, and the binding was “binds”. For B3, the binding was “binds”. With B4 the binding was “binds”. For B5, the binding was “binds”. In the case of B6, the binding is reported as “binds”.
